For experiment [1], the target named is T1, LIM homeobox 5 (human) (UniProt Q9H2C1).
T1 sequence: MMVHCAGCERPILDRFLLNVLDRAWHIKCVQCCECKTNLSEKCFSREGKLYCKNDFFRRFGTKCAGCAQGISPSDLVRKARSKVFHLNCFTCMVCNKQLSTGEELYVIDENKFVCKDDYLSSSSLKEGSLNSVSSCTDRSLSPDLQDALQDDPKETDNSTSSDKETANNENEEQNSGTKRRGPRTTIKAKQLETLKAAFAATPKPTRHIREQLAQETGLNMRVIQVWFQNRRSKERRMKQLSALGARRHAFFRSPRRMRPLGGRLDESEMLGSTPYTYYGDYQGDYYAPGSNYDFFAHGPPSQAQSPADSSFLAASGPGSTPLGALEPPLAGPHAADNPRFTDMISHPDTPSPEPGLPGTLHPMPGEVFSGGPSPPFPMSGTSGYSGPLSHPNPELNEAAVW
The experiment in a line: protein array.

Amino acid sequences for entries named in this document (tags omitted). A change or cut given only in a name is not applied to a line headed by its entry.
UniProt P20851: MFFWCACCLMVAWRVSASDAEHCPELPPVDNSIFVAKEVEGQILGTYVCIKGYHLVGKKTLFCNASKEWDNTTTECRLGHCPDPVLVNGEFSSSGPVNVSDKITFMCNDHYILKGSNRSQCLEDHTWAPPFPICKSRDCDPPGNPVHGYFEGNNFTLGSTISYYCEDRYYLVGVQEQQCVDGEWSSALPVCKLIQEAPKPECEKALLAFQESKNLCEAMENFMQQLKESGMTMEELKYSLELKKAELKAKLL

Substrate in experiment [2]: T2, C-C motif chemokine ligand 18 (human) (UniProt P55774)
T2 sequence: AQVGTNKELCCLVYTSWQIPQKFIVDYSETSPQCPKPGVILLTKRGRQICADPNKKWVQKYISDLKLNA
The experiment in a line: protein array.

Substrate in experiment [3]: T2,
For experiment [4], the target named is T3, protein phosphatase 1 regulatory subunit 27 (human) (UniProt Q86WC6).
T3 sequence: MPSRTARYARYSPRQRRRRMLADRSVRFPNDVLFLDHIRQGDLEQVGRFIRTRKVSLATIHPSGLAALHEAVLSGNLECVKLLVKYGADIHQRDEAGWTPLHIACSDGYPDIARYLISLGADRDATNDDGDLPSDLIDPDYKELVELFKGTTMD

The target in experiment [5] is T3, protein phosphatase 1 regulatory subunit 27 (human). The experiment in a line: protein array.
Experiment [6] has as its target T4, G protein-coupled receptor 83, transcript variant 1 (human) (UniProt Q9NYM4).
T4 sequence: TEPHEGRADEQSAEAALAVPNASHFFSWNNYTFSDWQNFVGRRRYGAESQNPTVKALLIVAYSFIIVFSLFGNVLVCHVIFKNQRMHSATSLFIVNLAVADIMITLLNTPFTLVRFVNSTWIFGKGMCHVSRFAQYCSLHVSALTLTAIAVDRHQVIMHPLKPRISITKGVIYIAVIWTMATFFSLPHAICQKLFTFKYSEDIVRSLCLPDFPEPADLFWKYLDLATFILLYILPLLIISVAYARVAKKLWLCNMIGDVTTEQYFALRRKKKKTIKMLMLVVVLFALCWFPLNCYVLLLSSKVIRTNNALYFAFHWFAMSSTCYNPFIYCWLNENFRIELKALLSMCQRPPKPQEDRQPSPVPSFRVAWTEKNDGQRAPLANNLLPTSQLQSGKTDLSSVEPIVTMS

In experiment [7] the target is T4, G protein-coupled receptor 83, transcript variant 1 (human). The experiment in a line: protein array.
In experiment [8] the target is spermatogenesis associated 33, transcript variant 2 (human) (UniProt Q96N06). The experiment in a line: protein array, with experimental replicate.
Experiment [9] has the same target.
Experiment [10] concerns the target T5, hematopoietic cell-specific Lyn substrate 1, transcript variant 1 (human) (UniProt P14317).
T5 sequence: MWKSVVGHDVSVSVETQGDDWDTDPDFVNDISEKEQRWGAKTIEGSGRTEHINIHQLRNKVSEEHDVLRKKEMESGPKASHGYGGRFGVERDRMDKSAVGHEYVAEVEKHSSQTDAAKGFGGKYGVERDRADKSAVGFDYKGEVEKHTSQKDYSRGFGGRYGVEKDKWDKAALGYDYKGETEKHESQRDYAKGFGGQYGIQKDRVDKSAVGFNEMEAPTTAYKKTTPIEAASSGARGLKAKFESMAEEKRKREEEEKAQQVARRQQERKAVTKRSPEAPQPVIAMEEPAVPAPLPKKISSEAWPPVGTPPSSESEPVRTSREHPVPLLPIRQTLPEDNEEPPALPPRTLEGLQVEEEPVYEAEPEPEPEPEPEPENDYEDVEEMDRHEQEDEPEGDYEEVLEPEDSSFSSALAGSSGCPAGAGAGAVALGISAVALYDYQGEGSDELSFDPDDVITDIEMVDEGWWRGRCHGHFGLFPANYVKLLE

For experiment [11], the target named is T5, hematopoietic cell-specific Lyn substrate 1, transcript variant 1 (human). The experiment in a line: protein array.
The target in experiment [12] is Complement component 4 binding protein beta (human) (UniProt P20851).
For experiment [13] the target is unchanged. The experiment in a line: protein array.

Read-outs that look alike come from different tables or passages of the source. These are yes or no findings as the source states them, for the method shown. Some results given as binding are weak or reduced against the parent protein; the word gives no strength.

B1: TCOL1009 (antibody, V domains shown)
VH: PVQLVQSGAEVKKPGASVKVSCKASGDTFPNYVISWVRQAPGQGLEWVGCINTNNGKTNYVQKLQGRVILTTDTSTNTANMELRSLRFDDTAVYYCARERGQVRSYGMDVWGQGTAVTVSS
VL: PYELTQPPSVSVSPGQTANITCSGDKLGDICVCWYQQKPGQSPVLVIYQHNKRPSGIPERFSGSNSGNTATLTISATQATDEAIYYCQSWDSSSVLFGGGTKLTVLG
For the molecule B1, in experiment [1], the binding result is “binds”.

B2: TCOL1005 (antibody, V domains shown)
VH: QVRLVESGGGLVQPGGFLRLSCAASGFTFSDYEMNWVRQAPGKGLEWISHIGSSGTYADSVKGRFTISRDNAKNSLYLQMSSLRAEDAGVYYCATTRNSAFLNWGQGTLVTVSS
VL: EIVLTQSPATLSLSPGEGATLSCRASQSVSGYLAWYQQKPGQAPRLLIYDASNRATGIPARFSGSGSGTDFTLTISSLEPEDFAVYYCQQRSKWPLTFGGGTQVEIKR
As to B2, the binding result in [2] and in [3] was “binds” in each case.

B3: TCOL1002 (antibody, V domains shown)
VH: QVHLVQSGAEVKRPGASVKVSCKGSGYTLNNDVAFSWVRQAPGQGPEWLGWINAYQGVTNISPNFRARVTMTTDTSTNTIYMDLQNLRSDDTAIYYCARDRQGLGRMDVWGQGTTVIVSS
VL: DIQMTQSPSSLSASLGDRITITCRATQSISNYLNWYQQKSGKVPELLIYAASHLQSGVPSRFSGTGSGTDFSLTISGLQPEDFATYYCQQTYTTPRTFGRGTTVEIRR
Regarding B3, the binding entry in [4] and in experiment [5] was “binds” throughout.

B4: THNS1013 (antibody, V domains shown)
VH: EVQLVQSGAEVKKPGESLKISCQGSGYRFNAYWIGWVRQIPGKGLEWMGIIYPGDSDTKYSPSFQGQVTISADKSISTAYLQWNGLEASDTAVYYCARSTSSSTSDFHYMDVWGKGTTVTISS
VL: EIVLTQSPDTLSLSPGERATLSCRASQSVSSSLAWYQQKPGQAPRLLIYYASNRATDIPARFSGSGSGTDFTLTISSLEPEDFALYYCQHRITWPPLITFGQGTRLEIKR
B4: the binding result in experiment [6] and in [7] was “binds” in each case.

B5: TESO1005 (antibody, V domains shown)
VH: PVQLQESGPGLVKPSQTLSLTCTVSGGSITSGSYFWSWIRQPAGEGLEWIGRIYTSGSTNYNPSLKSRVTISADTSKNHFSLELSSVTAADTAMYFCARERFGQGALDYWGQGTLVTVSS
VL: DIQMTQSPSTLSASVGDRVTITCRASQSISGWLAWYQQKPGKAPQLLIYLVSSLESGVPSRFSGSGSGTEFTLTISSLQPDDFATYYCQHYDSYIGTFGQGTKVEIKR
Regarding B5, the binding entry in [8] and in experiment [9] was “binds” each time.

B6: TKIC1005 (antibody, V domains shown)
VH: EVQLVESGGGLVKPGGSLRLSCAVSGFTFRSYSMNWVRQAPGKGLEWVSSISSSSRYVDYADSVKGRFTISRDNAKNLLYLQMNFLRVEDTAVYYCARTETKWEDRGLWDYWGQGTLVTVSS
VL: EIVMTQSPATLSVSPGETATLSCRASQSVSSNLAWYQQKPGQAPRLLMYGASTRATSVPARFSGSASGTDFTLTISSLQSEDFALYYCQQYNNWPQYTFGQGTKLEIKR
Consider B6, for which the binding entry in experiment [10] and in experiment [11] was “binds” throughout.

B7: THNS1002 (antibody, V domains shown)
VH: EGQLLESGGGLVQPGGSLRLSCEASGFTFSFSSYAMSWVRQAPGRGLEWVSVTGGSGYTKYYADSVKGRFTVSRDNSKNTLYLQMNSLRAEDTALYYCARRSTSSPSFSTLDVWGRGATVIVSS
VL: QSALTQPASVSGSPGQSITISCTGTSSDVGGFNYVSWYQQHPGKAPKLLIYDVSERPSGVSSRFSGSKSGNTASLTISGLQAEDEADYYCSSYTSSTTVLFGGGTKLTVLG
For the molecule B7, the binding entry in experiment [12] and in [13] was “binds” in each case.
